According to the supplement of paper PMC10849652:
Some of the results follow.

The chains behind the UniProt entries cited, without tags or fusion partners. Where a name states a change or a piece, a line headed by the entry shows the natural chain unless it says otherwise.
UniProt P98082: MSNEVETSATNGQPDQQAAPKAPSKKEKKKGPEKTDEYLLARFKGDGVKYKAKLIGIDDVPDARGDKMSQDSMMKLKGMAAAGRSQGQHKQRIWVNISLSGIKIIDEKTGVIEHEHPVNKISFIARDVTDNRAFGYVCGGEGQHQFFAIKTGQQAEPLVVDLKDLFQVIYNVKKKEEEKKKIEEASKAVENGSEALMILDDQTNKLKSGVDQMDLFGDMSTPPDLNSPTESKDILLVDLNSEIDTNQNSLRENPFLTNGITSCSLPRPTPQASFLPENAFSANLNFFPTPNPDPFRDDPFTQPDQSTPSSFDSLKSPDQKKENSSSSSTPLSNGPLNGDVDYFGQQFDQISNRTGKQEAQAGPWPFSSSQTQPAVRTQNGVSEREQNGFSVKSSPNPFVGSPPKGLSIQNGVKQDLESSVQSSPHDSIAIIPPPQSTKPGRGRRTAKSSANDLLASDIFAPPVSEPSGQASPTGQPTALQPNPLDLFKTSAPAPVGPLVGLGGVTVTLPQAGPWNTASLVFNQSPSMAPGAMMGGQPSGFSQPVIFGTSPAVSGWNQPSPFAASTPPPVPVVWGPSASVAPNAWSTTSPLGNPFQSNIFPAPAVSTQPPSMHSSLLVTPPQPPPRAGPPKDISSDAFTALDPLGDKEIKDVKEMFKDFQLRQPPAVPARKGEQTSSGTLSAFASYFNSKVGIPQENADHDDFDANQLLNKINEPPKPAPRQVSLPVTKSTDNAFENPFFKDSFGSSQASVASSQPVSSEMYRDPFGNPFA
UniProt Q2TBE0: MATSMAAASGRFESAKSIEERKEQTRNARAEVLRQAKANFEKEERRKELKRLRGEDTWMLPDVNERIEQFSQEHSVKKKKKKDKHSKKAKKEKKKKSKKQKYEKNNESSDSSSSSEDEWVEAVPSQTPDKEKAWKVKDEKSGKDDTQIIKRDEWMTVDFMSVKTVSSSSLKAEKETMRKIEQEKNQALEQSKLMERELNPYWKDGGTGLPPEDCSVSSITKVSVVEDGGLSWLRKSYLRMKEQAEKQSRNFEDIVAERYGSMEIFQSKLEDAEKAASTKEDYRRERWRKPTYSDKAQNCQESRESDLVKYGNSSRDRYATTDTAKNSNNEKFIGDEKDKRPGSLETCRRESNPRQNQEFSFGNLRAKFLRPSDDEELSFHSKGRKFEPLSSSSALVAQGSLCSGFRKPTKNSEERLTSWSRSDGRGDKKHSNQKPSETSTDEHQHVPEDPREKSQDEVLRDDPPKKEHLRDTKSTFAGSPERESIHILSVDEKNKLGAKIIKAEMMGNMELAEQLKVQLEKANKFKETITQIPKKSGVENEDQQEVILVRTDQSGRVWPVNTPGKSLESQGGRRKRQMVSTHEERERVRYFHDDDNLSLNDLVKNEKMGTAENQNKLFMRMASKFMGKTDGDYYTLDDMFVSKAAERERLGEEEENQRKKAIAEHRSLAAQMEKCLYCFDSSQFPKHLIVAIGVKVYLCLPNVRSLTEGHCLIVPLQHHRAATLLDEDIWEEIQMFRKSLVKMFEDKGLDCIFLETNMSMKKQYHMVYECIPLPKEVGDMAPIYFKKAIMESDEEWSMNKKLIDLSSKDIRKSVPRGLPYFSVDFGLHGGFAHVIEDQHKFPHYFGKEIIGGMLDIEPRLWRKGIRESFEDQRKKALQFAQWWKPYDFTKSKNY
UniProt Q9Y6A2: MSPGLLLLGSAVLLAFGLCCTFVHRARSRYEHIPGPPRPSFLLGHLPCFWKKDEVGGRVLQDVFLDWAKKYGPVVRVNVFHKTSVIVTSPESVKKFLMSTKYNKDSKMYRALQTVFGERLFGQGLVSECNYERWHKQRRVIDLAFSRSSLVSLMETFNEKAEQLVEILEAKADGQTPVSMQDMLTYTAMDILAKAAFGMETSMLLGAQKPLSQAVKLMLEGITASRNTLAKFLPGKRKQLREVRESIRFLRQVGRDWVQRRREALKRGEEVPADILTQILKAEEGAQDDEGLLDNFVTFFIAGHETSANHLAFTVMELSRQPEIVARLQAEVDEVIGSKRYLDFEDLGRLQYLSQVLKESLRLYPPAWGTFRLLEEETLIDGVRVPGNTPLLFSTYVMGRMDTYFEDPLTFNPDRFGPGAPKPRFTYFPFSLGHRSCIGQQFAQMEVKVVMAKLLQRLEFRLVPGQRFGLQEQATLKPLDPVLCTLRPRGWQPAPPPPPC
UniProt Q12996: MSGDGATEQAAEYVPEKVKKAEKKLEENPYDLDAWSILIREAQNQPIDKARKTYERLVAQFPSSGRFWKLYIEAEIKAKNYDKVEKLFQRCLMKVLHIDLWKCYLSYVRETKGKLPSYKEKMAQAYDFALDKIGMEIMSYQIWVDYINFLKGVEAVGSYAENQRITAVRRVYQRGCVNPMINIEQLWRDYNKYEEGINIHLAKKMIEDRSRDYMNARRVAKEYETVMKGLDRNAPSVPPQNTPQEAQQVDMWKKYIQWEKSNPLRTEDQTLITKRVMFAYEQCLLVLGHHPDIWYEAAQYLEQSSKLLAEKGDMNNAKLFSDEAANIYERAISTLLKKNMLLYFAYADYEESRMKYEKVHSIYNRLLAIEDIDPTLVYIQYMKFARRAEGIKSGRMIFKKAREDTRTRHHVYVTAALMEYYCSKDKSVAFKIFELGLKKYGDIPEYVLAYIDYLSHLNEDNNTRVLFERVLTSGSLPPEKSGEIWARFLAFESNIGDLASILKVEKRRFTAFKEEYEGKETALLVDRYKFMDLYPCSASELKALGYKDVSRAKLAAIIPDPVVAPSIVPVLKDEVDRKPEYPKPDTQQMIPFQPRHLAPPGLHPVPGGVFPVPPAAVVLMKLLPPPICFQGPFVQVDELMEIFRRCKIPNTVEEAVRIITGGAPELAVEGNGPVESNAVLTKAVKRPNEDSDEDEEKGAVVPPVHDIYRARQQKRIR
UniProt Q14118: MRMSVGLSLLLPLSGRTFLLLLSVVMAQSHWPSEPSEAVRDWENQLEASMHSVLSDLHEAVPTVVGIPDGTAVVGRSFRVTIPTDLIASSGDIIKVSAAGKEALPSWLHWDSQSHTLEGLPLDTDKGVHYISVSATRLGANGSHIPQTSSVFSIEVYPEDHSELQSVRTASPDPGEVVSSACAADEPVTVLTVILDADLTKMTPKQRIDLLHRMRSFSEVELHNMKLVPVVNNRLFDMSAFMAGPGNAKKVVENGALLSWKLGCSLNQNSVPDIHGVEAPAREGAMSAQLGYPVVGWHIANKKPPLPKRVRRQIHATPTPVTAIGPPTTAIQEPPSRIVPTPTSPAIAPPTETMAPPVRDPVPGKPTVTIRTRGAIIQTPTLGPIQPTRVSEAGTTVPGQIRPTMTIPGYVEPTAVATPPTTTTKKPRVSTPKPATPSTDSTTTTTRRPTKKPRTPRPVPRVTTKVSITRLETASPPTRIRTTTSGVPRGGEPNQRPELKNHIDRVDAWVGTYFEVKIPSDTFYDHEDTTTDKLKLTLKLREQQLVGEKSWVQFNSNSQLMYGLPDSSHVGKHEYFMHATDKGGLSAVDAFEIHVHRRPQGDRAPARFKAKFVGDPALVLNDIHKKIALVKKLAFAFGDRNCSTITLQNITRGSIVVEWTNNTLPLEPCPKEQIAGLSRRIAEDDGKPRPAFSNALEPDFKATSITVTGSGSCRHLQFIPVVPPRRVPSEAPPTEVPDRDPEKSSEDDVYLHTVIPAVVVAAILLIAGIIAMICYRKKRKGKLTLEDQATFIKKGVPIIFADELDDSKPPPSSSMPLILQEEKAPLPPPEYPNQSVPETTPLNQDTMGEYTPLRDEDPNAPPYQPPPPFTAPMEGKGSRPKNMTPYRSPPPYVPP
UniProt P11182, whole entry, looked up: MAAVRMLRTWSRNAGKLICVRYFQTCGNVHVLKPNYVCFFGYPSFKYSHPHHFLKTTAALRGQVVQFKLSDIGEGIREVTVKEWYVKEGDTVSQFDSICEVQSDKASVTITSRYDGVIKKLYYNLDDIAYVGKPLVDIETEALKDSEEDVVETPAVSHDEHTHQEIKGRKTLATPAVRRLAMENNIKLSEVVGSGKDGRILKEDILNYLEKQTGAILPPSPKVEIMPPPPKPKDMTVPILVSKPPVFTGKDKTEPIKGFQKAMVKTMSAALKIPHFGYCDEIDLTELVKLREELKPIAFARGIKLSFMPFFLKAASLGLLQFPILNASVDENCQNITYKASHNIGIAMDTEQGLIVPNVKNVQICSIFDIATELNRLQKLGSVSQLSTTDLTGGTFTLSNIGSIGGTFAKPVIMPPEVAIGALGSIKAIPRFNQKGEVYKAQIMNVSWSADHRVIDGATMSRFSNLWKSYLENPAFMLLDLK
UniProt Q9UJU6: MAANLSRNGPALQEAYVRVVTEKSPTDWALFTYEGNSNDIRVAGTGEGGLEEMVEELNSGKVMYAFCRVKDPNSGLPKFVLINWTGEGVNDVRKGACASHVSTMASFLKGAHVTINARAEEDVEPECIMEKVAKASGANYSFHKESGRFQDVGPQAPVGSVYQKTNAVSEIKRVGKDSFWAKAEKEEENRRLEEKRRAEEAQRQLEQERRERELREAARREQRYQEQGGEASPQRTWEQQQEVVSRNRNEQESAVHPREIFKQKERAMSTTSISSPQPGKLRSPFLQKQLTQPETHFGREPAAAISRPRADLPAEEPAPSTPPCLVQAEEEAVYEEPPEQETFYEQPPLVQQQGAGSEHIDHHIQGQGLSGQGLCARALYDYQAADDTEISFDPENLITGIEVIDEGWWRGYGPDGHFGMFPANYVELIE
UniProt Q6UX04: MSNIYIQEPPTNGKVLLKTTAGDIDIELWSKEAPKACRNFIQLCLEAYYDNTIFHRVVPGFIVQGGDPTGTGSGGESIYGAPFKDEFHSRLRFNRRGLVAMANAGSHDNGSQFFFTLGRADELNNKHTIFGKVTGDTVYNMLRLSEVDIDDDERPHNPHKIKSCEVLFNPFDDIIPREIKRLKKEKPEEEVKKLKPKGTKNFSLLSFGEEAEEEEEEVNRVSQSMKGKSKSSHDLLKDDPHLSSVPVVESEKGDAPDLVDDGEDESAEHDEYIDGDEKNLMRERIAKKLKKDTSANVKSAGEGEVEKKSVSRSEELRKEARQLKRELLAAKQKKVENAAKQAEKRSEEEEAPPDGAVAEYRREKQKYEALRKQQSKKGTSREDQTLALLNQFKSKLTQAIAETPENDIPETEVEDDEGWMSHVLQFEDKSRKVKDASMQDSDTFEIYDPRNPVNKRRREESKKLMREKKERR
UniProt P53634: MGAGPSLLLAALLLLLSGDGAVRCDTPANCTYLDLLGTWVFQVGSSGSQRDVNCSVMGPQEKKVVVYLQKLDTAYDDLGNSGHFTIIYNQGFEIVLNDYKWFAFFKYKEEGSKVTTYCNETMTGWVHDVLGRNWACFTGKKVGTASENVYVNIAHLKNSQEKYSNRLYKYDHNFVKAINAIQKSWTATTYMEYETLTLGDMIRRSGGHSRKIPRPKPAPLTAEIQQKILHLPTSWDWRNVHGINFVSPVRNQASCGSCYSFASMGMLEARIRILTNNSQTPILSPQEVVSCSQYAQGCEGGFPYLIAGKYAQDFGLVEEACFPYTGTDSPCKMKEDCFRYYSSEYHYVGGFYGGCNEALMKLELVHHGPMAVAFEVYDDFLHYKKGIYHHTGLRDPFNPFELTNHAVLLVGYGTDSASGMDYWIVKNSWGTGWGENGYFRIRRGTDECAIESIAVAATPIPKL
UniProt Q8NA75: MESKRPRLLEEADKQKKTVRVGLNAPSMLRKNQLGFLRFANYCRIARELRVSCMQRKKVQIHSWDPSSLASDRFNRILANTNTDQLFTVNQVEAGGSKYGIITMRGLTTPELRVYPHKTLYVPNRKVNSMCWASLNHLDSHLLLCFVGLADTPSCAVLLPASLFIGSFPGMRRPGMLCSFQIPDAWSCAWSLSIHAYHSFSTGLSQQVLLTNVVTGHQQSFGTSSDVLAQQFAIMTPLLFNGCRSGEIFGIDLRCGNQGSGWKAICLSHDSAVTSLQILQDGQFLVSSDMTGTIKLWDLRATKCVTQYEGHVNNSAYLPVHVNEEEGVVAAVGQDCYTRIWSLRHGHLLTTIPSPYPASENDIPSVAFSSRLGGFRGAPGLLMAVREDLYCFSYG
UniProt P33240: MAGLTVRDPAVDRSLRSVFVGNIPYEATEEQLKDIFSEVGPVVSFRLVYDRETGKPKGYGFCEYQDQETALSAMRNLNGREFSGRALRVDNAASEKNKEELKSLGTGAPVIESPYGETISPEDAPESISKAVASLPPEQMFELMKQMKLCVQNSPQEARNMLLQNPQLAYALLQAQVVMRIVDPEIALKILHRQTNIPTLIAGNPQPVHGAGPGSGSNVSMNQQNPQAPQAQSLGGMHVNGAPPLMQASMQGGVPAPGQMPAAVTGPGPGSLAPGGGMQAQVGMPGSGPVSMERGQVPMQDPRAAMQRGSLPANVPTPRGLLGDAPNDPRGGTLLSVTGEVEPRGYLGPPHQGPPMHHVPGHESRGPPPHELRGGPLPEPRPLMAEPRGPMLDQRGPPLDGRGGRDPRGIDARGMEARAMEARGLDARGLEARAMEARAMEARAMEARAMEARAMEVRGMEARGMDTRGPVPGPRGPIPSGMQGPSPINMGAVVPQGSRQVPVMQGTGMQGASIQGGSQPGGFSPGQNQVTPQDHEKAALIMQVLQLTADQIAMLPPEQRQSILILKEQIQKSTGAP

Columns and labels:
Assay in all cases: log2 fold change, soluble protein after heating vs DMSO (PISA); higher = thermal stabilisation; K562 cells, 10 uM, 30 min; active = over 0.2 and 3.5 SD of the protein, either way, in both replicates (recomputed)
[1] = compound: CS(=O)(=O)c1ccc(-c2cnc(N)c(C(=O)Nc3ccccc3)n2)cc1
How it was run: (§1)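 K562 cells at 2×10^6 cells/mL were treated with 10 μM compound for 30 min. Aliquots were heated for 3 min across 48°C-58°C, pooled, and extracted in PBS with 0.5% NP-40 at 4°C; soluble protein was the supernatant after 21,000xg for 90 min. Soluble protein was quantified by TMTpro 16plex LC-MS/MS with channel sums equalised, and reported as log2 fold change in thermal stability against DMSO controls, with values from duplicates.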

crizotinib = compound: C[C@@H](Oc1cc(-c2cnn(C3CCNCC3)c2)cnc1N)c1c(Cl)ccc(F)c1Cl [crizotinib]
How it was run: as §1

[2] = compound: C[C@H](C1=CC=C(C=C1)C(=O)NC2=C3C=CNC3=NC=C2)N
How it was run: as §1

gandotinib = compound: Cc1cc(Nc2cc(CN3CCOCC3)c3nc(C)c(Cc4ccc(Cl)cc4F)n3n2)n[nH]1 [gandotinib]
How it was run: as §1

[3] = compound: Cc1cc(SCc2sc(-c3ccc(C(F)(F)F)cc3)nc2C)ccc1OCC(=O)O
How it was run: as §1

doramapimod = compound: Cc1ccc(-n2nc(C(C)(C)C)cc2NC(=O)Nc2ccc(OCCN3CCOCC3)c3ccccc23)cc1 [doramapimod]
How it was run: as §1

ispinesib = compound: Cc1ccc(C(=O)N(CCCN)[C@@H](c2nc3cc(Cl)ccc3c(=O)n2Cc2ccccc2)C(C)C)cc1 [ispinesib]
How it was run: as §1

[4] = compound: C[C@@H]1COCCN1C2=NC(=NC(=C2)C3(CC3)S(=O)(=O)C)C4=C5C=CNC5=CC=C4
How it was run: as §1

duvelisib = compound: C[C@H](Nc1ncnc2nc[nH]c12)c1cc2cccc(Cl)c2c(=O)n1-c1ccccc1 [duvelisib]
How it was run: as §1

tozasertib = compound: Cc1cc(Nc2cc(N3CCN(C)CC3)nc(Sc3ccc(NC(=O)C4CC4)cc3)n2)n[nH]1 [tozasertib]
How it was run: as §1

Target | log2 fold change [1] | log2 fold change (crizotinib) | log2 fold change [2] | log2 fold change (gandotinib) | log2 fold change [3] | log2 fold change (doramapimod) | log2 fold change (ispinesib) | log2 fold change [4] | log2 fold change (duvelisib) | log2 fold change (tozasertib)
CTSS (UniProt P25774) | inactive: -0.007 | inactive: 0.063 | inactive: 0.059 | inactive: 0.018 | inactive: 0.045 | inactive: 0.043 | inactive: 0.049 |  |  | 
DCP2 (UniProt Q8IU60) | inactive: -0.211 | active: 0.779 | inactive: 0.009 |  | inactive: 0.095 | inactive: 0.147 | inactive: -0.045 | inactive: 0.119 |  | 
DAXX (UniProt Q9UER7) | inactive: 0.154 | inactive: 0.098 | inactive: 0.106 | inactive: 0.313 | inactive: 0.006 | inactive: 0 | inactive: -0.062 |  |  | 
DAB2 (UniProt P98082) | inactive: -0.04 | inactive: -0.099 | inactive: -0.052 | inactive: -0.021 | inactive: 0.069 | inactive: 0.022 | inactive: -0.091 | inactive: 0.049 |  | 
CWF19L2 (UniProt Q2TBE0) | inactive: -0.024 | inactive: -0.034 | inactive: 0.027 | active: 0.777 | inactive: -0.001 | inactive: -0.021 | inactive: -0.115 |  |  | 
CUTA isoform 2 (UniProt O60888) | inactive: 0.073 | inactive: -0.045 | inactive: -0.001 | inactive: 0.131 | inactive: -0.049 | inactive: -0.019 | inactive: 0.109 | inactive: 0.021 |  | 
CYP46A1 (UniProt Q9Y6A2) | inactive: -0.055 | inactive: 0.078 | inactive: 0.2 | inactive: 0.006 | inactive: -0.032 | inactive: -0.068 | inactive: -0.325 |  | inactive: 0.039 | inactive: -0.081
DCTN5 (UniProt Q9BTE1) | inactive: 0.006 | inactive: 0.048 | inactive: -0.08 | inactive: -0.024 | inactive: -0.066 | inactive: -0.009 | inactive: 0.066 |  | inactive: 0.023 | inactive: -0.033
CTBS (UniProt Q01459) | inactive: -0.05 | inactive: -0.166 | inactive: 0.04 | inactive: -0.078 | inactive: -0.018 | inactive: 0.009 | inactive: -0.092 | inactive: -0.078 |  | 
CSTF3 (UniProt Q12996) | inactive: 0.004 | inactive: -0.07 | inactive: 0.019 | inactive: 0 | inactive: -0.031 | inactive: -0.022 | inactive: 0.082 | inactive: 0.025 |  | 
DBR1 (UniProt Q9UK59) | inactive: -0.034 | inactive: -0.022 | inactive: -0.014 | inactive: 0.003 | inactive: 0.01 | inactive: 0.02 | inactive: 0.058 | inactive: 0.061 |  | 
DCAF10 (UniProt Q5QP82) | inactive: 0.036 | inactive: 0.007 | inactive: 0.017 | inactive: -0.15 | inactive: -0.098 | inactive: 0.055 | inactive: -0.059 | inactive: 0.037 |  | 
DAG1 (UniProt Q14118) | inactive: 0.037 | inactive: 0.119 | inactive: 0.032 | inactive: -0.006 | inactive: -0.032 | inactive: -0.001 | inactive: -0.001 | inactive: 0.132 |  | 
CSRP3 (UniProt P50461) | inactive: 0.015 | inactive: 0.077 | inactive: 0.018 | inactive: 0.007 |  | inactive: -0.201 | inactive: -0.07 |  |  | inactive: -0.051
CXXC1 isoform 2 (UniProt Q9P0U4) | inactive: -0.001 | inactive: 0.091 | inactive: 0.179 | inactive: 0.006 | inactive: -0.062 | inactive: -0.068 |  |  | inactive: 0.06 | inactive: -0.218
DBT (UniProt P11182) | inactive: -0.024 | inactive: -0.01 | inactive: 0.054 | inactive: 0.005 | inactive: -0.042 | inactive: 0.029 | inactive: 0.009 | inactive: -0.014 |  | 
DBNL isoform 3 (UniProt Q9UJU6) | inactive: 0.041 | inactive: -0.116 | inactive: -0.016 | inactive: -0.094 | inactive: -0.015 | inactive: 0.054 | inactive: -0.048 | inactive: 0.073 |  | 
CWC27 (UniProt Q6UX04) | inactive: 0.03 | inactive: 0.14 | inactive: -0.001 | inactive: 0.033 | inactive: 0.169 | inactive: -0.091 | inactive: -0.017 | inactive: 0.145 |  | 
CYP2S1 isoform 2 (UniProt Q96SQ9) | inactive: -0.121 | inactive: 0.125 | inactive: -0.038 | inactive: -0.146 | inactive: 0.207 | inactive: 0.121 | inactive: -0.047 |  | inactive: 0.632 | 
CYSTM1 (UniProt Q9H1C7) | inactive: -0.038 | inactive: -0.344 | inactive: 0.032 |  | inactive: -0.134 | inactive: -0.007 | inactive: -0.185 |  | inactive: -0.088 | inactive: -0.03
DCAF16 (UniProt Q9NXF7) | inactive: 0.058 | inactive: 0.001 | inactive: -0.103 | inactive: 0.069 | inactive: 0.17 | inactive: -0.005 | inactive: 0.036 | inactive: 0.176 |  | 
CTSC (UniProt P53634) | inactive: 0.042 | inactive: -0.037 | inactive: -0.062 | inactive: 0 | inactive: -0.047 | inactive: 0.013 | inactive: -0.057 | inactive: -0.015 |  | 
CTSB (UniProt P07858) | inactive: 0.048 | active: -0.508 | inactive: -0.042 | inactive: 0.006 | inactive: 0.015 | inactive: -0.014 | active: -0.403 | inactive: 0.057 |  | 
CTSZ (UniProt Q9UBR2) | inactive: -0.001 | inactive: -0.007 | inactive: -0.033 | inactive: 0.03 | inactive: -0.037 | inactive: 0.05 | active: -0.481 | inactive: 0.021 |  | 
CTSA (UniProt P10619) | inactive: 0.032 | active: -0.563 | inactive: -0.036 | inactive: 0.043 | inactive: 0.003 | inactive: 0.009 | active: -0.237 | inactive: 0.002 |  | 
DCAF4L2 (UniProt Q8NA75) | inactive: 0.064 | inactive: 0.48 | inactive: -0.069 | inactive: -0.025 | inactive: -0.011 | inactive: 0.258 | inactive: -0.069 |  | inactive: 0.036 | inactive: -0.004
DCAF6 isoform 3 (UniProt Q58WW2) | inactive: -0.008 | inactive: 0.132 | inactive: -0.054 | inactive: -0.024 | inactive: -0.058 | inactive: 0.056 | inactive: 0.027 | inactive: 0.026 |  | 
CUX1 isoform 2 (UniProt Q13948) | inactive: -0.217 | inactive: -0.063 | inactive: -0.063 | inactive: -0.046 | inactive: 0.002 | inactive: -0.015 | inactive: -0.008 | inactive: 0.029 |  | 
CTU1 (UniProt Q7Z7A3) | inactive: 0.005 | inactive: -0.132 | inactive: -0.032 | inactive: -0.015 | inactive: 0.058 | inactive: -0.049 | inactive: -0.082 | inactive: 0.081 |  | 
CSTF2 (UniProt P33240) | inactive: 0.016 | inactive: 0.075 | inactive: -0.042 | inactive: 0.048 | inactive: -0.011 | inactive: 0.028 | inactive: 0.068 | inactive: 0.14 |  | 

2 records drawn at random from the list so far, as already listed:
Target | log2 fold change [1] | log2 fold change (crizotinib) | log2 fold change [2] | log2 fold change (gandotinib) | log2 fold change [3] | log2 fold change (doramapimod) | log2 fold change (ispinesib) | log2 fold change [4] | log2 fold change (duvelisib) | log2 fold change (tozasertib)
CUTA isoform 2 (UniProt O60888) | inactive: 0.073 | inactive: -0.045 | inactive: -0.001 | inactive: 0.131 | inactive: -0.049 | inactive: -0.019 | inactive: 0.109 | inactive: 0.021 |  | 
CSTF2 (UniProt P33240) | inactive: 0.016 | inactive: 0.075 | inactive: -0.042 | inactive: 0.048 | inactive: -0.011 | inactive: 0.028 | inactive: 0.068 | inactive: 0.14 |  | 
